Literature values as cited in US6511811B1, “Protein kinase C antagonist related to insulin receptor” (The Regents of the University of California, priority 1995, dated 2003).

Tested on: insulin receptor kinase activity
Conditions: incubation of cells with the inhibitor; Mosthaf et al.; cited from earlier work

For CN[C@@H]1C[C@H]2O[C@@](C)([C@@H]1OC)n1c3ccccc3c3c4c(c5c6ccccc6n2c5c31)C(=O)NC4 [staurosporin], the “Effect on hyperglycemia-induced inhibition of insulin receptor kinase activity” value is given as “is inhibited”.
